PubChem BioAssay AID1053208 – Peter MacCallum Cancer Centre, 2014
The whole screen tested about 17,000 reagents; shown is a part drawn at random. Of all reagents, 788 (4.7%) are marked active. 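Calls rest on z-score classes alone; an extra cut-off of viability at most 70% of control was not applied to them.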 Reagent sequences are not shown.

Assay: 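Genes whose silencing cuts survival of bone tumour cells only with doxorubicin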 (primary screen)
Cell system: mouse osteosarcoma cells, early-passage culture from an engineered mouse model of fibroblastic bone tumour
Reagent: siRNA pool against mouse genes, 40 nM
Time to read-out: about 120 h (48 h before drug, then 72 h with drug)
Challenge: doxorubicin 100 nM for 72 h, roughly 30-40% inhibitory dose
Measured: 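Luminescent ATP signal taken as viability with or without 100 nM doxorubicin for 72 h; mean of two wells set against non-targeting siRNA and turned into robust z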
Direction: viability z-score with doxorubicin and doxorubicin viability vs non-targeting: higher = more viable cells under doxorubicin; viability z-score without drug: higher = more viable cells with knock-down alone; z-score of drug to no-drug ratio: higher = less drug sensitisation by knock-down
Call rule: 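Called active if knock-down leaves viability unchanged without drug (z within -2 to 2) but lowers it with doxorubicin (z at or under -2)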

gene | combined z-score class | viability z-score with doxorubicin | viability z-score without drug | z-score of drug to no-drug ratio | doxorubicin viability vs non-targeting | Call
Taf13 | no change with or without drug | -0.45 | -0.84 | 0.22 | 0.9 | inactive
Cul4a | no change with or without drug | -1.12 | 0.17 | -1.12 | 0.84 | inactive
Amfr | no change with or without drug | 0.22 | -0.51 | 0.67 | 0.96 | inactive
Hoxc9 | no change with or without drug | -1.12 | -1.18 | -0.34 | 0.84 | inactive
4632434I11RIK | no change with or without drug | 0.56 | 0.51 | 0.34 | 0.99 | inactive
Dmac2 | no change with or without drug | -1.12 | -0.17 | -1.01 | 0.84 | inactive
Cypt1 | high cell count without drug only | 0.67 | 3.2 | -1.12 | 1 | inactive
Rab5if | low cell count with doxorubicin only | -2.25 | -0.84 | -1.8 | 0.74 | active
Oprk1 | no change with or without drug | -0.45 | 0.67 | -0.79 | 0.9 | inactive
Epsti1 | no change with or without drug | -1.46 | 1.52 | -2.25 | 0.81 | inactive
Exosc1 | no change with or without drug | 1.01 | 1.52 | 0.11 | 1.03 | inactive
Zfp120 | low cell count with doxorubicin only | -2.47 | 0.17 | -2.59 | 0.72 | active
Igbp1b | no change with or without drug | -0.9 | 0.84 | -1.35 | 0.86 | inactive
4930550C14Rik | no change with or without drug | -0.56 | -1.18 | 0.34 | 0.89 | inactive
Ftdc2 | no change with or without drug | -1.57 | 0.17 | -1.69 | 0.8 | inactive
Cox5a | no change with or without drug | -0.22 | -0.17 | 0 | 0.92 | inactive
Fam219b | no change with or without drug | -1.35 | -1.85 | 0 | 0.82 | inactive
Hpgd | no change with or without drug | 0.79 | 1.52 | -0.11 | 1.01 | inactive
Csn3 | no change with or without drug | 1.57 | 1.18 | 0.9 | 1.08 | inactive
Tmem69 | no change with or without drug | 0.56 | -1.18 | 1.57 | 0.99 | inactive
Ifi204 | no change with or without drug | -0.9 | -0.84 | -0.22 | 0.86 | inactive
Chaf1a | no change with or without drug | -0.79 | 0.84 | -1.24 | 0.87 | inactive
Commd2 | no change with or without drug | -0.45 | 0.17 | -0.45 | 0.9 | inactive
Cdk12 | low cell count with and without drug | -2.25 | -2.36 | -0.79 | 0.74 | inactive
Atf3 | high cell count with and without drug | 3.15 | 2.7 | 1.35 | 1.22 | inactive
Pclaf | low cell count with doxorubicin only | -2.36 | -0.84 | -1.91 | 0.73 | active
Trp53 | no change with or without drug | -0.34 | 0.17 | -0.34 | 0.91 | inactive
Rbbp7 | no change with or without drug | 1.01 | 0.34 | 0.9 | 1.03 | inactive
Pfkl | no change with or without drug | 0.34 | -1.18 | 1.35 | 0.97 | inactive
Or5k1b | no change with or without drug | 0.11 | 1.69 | -0.9 | 0.95 | inactive
Mettl3 | no change with or without drug | -1.8 | 0.34 | -2.02 | 0.78 | inactive
Gtf2ird2 | no change with or without drug | 0.22 | 0.67 | -0.11 | 0.96 | inactive
Defb19 | no change with or without drug | 0 | 0.34 | -0.11 | 0.94 | inactive
Or4f14d | no change with or without drug | -0.9 | -0.17 | -0.79 | 0.86 | inactive
Eif4g2 | no change with or without drug | -1.12 | -0.17 | -1.01 | 0.84 | inactive
Pole3 | no change with or without drug | 1.35 | 0.84 | 0.9 | 1.06 | inactive
Eno2 | low cell count with doxorubicin only | -2.81 | -1.52 | -2.02 | 0.69 | active
Ksr1 | no change with or without drug | -0.67 | 0.17 | -0.67 | 0.88 | inactive
Pcsk1n | no change with or without drug | -1.8 | 0.17 | -1.91 | 0.78 | inactive
Ntmt1 | no change with or without drug | 0.45 | 0.51 | 0.22 | 0.98 | inactive
Atpaf1 | no change with or without drug | 0.11 | -0.17 | 0.34 | 0.95 | inactive
Nipsnap3b | high cell count with doxorubicin only | 2.02 | 1.18 | 1.35 | 1.12 | inactive
Ccnk | no change with or without drug | -0.22 | -0.84 | 0.45 | 0.92 | inactive
Ctif | no change with or without drug | 0.34 | -0.84 | 1.12 | 0.97 | inactive
Fkbp2 | no change with or without drug | -0.56 | 0.84 | -1.01 | 0.89 | inactive
Cdx1 | no change with or without drug | 0.22 | 1.18 | -0.45 | 0.96 | inactive
Serpinb2 | no change with or without drug | -0.22 | 1.85 | -1.24 | 0.92 | inactive
Tex14 | no change with or without drug | -1.24 | 0 | -1.24 | 0.83 | inactive
Myl1 | no change with or without drug | 0.67 | -1.52 | 2.02 | 1 | inactive
Hltf | low cell count without drug only | -1.35 | -2.02 | 0.11 | 0.82 | inactive

Reformatted: entries from further up
Ntmt1 | combined z-score class: no change with or without drug; viability z-score with doxorubicin: 0.45; viability z-score without drug: 0.51; z-score of drug to no-drug ratio: 0.22; doxorubicin viability vs non-targeting: 0.98; Call: inactive
Atpaf1 | combined z-score class: no change with or without drug; viability z-score with doxorubicin: 0.11; viability z-score without drug: -0.17; z-score of drug to no-drug ratio: 0.34; doxorubicin viability vs non-targeting: 0.95; Call: inactive
Nipsnap3b | combined z-score class: high cell count with doxorubicin only; viability z-score with doxorubicin: 2.02; viability z-score without drug: 1.18; z-score of drug to no-drug ratio: 1.35; doxorubicin viability vs non-targeting: 1.12; Call: inactive
Ccnk | combined z-score class: no change with or without drug; viability z-score with doxorubicin: -0.22; viability z-score without drug: -0.84; z-score of drug to no-drug ratio: 0.45; doxorubicin viability vs non-targeting: 0.92; Call: inactive
Ctif | combined z-score class: no change with or without drug; viability z-score with doxorubicin: 0.34; viability z-score without drug: -0.84; z-score of drug to no-drug ratio: 1.12; doxorubicin viability vs non-targeting: 0.97; Call: inactive
Fkbp2 | combined z-score class: no change with or without drug; viability z-score with doxorubicin: -0.56; viability z-score without drug: 0.84; z-score of drug to no-drug ratio: -1.01; doxorubicin viability vs non-targeting: 0.89; Call: inactive
Cdx1 | combined z-score class: no change with or without drug; viability z-score with doxorubicin: 0.22; viability z-score without drug: 1.18; z-score of drug to no-drug ratio: -0.45; doxorubicin viability vs non-targeting: 0.96; Call: inactive
